We go through 9 targets from the supplement of paper PMC7666118.

The chains behind the UniProt entries cited, without tags or fusion partners. Where a name states a change or a piece, a line headed by the entry shows the natural chain unless it says otherwise.
UniProt Q9NW15: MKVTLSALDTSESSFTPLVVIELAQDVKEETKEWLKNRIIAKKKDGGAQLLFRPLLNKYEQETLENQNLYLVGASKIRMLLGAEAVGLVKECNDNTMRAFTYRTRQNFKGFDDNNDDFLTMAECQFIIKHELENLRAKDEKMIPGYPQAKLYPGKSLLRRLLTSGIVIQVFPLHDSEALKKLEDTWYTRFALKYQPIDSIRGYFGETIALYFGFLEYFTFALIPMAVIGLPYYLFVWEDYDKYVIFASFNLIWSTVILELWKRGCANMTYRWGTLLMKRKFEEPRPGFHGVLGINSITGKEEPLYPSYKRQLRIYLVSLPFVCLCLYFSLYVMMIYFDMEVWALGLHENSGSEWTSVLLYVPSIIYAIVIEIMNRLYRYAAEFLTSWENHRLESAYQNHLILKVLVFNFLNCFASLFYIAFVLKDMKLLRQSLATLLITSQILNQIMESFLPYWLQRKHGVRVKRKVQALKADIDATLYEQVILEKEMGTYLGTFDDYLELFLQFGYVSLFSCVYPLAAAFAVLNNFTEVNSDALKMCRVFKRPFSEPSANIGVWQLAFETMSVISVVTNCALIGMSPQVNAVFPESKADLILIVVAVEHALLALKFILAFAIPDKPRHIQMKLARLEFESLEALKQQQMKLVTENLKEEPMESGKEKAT
UniProt Q9Y673: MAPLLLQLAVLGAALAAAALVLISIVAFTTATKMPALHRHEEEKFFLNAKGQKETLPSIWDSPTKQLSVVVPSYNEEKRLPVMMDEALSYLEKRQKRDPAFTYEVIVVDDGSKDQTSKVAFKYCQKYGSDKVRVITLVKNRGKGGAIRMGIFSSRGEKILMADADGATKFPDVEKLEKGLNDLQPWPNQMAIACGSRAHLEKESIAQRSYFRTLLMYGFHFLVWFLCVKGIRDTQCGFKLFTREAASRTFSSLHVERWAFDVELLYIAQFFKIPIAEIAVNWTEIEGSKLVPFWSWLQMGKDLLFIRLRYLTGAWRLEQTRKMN
UniProt O95260: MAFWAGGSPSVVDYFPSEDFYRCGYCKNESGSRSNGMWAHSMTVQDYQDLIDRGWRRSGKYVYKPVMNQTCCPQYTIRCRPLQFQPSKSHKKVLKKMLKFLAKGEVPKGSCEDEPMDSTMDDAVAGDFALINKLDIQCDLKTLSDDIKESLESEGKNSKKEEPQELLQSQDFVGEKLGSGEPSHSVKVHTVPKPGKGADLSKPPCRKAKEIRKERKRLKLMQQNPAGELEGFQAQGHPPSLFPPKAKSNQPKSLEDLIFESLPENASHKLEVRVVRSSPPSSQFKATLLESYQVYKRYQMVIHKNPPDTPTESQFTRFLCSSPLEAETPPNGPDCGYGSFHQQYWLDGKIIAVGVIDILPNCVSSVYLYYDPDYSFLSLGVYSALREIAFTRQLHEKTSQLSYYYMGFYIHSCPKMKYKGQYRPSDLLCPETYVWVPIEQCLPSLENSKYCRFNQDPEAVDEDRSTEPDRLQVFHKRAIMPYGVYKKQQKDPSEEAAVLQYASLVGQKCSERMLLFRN
UniProt Q06481, whole entry: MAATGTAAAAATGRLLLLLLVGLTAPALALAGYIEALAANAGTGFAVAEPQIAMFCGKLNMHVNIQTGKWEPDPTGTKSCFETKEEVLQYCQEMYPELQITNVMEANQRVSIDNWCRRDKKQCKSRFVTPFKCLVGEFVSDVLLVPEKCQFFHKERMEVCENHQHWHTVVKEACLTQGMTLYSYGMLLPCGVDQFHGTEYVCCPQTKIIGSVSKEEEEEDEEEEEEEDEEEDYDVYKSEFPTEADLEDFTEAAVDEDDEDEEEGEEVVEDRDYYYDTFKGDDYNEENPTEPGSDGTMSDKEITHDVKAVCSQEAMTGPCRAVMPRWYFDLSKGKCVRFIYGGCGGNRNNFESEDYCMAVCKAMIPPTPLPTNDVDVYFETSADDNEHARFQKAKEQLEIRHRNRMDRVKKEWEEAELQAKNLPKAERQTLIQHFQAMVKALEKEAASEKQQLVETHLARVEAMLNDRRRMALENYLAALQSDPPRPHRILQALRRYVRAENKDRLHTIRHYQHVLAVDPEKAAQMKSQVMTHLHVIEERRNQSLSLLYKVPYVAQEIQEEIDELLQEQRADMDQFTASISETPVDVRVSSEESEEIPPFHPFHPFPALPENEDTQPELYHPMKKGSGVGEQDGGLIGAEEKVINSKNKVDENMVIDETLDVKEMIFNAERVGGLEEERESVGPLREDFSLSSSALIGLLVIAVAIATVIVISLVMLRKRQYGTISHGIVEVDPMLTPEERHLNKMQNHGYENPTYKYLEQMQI
UniProt Q86XL3: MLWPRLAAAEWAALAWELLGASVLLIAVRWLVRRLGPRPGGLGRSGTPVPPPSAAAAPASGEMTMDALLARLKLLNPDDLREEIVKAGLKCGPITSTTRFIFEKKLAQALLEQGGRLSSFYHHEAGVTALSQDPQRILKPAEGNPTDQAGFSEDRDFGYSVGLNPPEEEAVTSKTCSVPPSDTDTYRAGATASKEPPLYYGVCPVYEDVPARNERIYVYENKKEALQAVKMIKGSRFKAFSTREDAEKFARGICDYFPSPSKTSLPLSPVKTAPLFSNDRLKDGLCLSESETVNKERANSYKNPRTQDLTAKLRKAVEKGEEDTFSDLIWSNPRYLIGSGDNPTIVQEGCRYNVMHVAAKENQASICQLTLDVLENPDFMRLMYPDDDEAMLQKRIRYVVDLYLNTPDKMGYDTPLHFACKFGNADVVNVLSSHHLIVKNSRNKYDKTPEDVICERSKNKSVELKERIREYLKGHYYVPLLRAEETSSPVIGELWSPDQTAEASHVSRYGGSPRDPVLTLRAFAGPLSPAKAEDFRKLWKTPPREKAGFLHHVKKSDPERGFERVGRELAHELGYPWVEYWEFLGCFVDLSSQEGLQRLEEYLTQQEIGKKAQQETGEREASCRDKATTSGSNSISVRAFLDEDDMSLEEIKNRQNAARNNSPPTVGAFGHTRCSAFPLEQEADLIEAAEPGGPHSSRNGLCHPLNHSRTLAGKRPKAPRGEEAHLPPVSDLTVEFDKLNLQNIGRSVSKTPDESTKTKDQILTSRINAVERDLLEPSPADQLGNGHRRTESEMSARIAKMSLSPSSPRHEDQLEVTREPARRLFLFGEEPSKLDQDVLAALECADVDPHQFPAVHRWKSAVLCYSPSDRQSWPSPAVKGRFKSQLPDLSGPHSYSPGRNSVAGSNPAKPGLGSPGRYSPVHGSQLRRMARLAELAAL
UniProt Q9ULH1: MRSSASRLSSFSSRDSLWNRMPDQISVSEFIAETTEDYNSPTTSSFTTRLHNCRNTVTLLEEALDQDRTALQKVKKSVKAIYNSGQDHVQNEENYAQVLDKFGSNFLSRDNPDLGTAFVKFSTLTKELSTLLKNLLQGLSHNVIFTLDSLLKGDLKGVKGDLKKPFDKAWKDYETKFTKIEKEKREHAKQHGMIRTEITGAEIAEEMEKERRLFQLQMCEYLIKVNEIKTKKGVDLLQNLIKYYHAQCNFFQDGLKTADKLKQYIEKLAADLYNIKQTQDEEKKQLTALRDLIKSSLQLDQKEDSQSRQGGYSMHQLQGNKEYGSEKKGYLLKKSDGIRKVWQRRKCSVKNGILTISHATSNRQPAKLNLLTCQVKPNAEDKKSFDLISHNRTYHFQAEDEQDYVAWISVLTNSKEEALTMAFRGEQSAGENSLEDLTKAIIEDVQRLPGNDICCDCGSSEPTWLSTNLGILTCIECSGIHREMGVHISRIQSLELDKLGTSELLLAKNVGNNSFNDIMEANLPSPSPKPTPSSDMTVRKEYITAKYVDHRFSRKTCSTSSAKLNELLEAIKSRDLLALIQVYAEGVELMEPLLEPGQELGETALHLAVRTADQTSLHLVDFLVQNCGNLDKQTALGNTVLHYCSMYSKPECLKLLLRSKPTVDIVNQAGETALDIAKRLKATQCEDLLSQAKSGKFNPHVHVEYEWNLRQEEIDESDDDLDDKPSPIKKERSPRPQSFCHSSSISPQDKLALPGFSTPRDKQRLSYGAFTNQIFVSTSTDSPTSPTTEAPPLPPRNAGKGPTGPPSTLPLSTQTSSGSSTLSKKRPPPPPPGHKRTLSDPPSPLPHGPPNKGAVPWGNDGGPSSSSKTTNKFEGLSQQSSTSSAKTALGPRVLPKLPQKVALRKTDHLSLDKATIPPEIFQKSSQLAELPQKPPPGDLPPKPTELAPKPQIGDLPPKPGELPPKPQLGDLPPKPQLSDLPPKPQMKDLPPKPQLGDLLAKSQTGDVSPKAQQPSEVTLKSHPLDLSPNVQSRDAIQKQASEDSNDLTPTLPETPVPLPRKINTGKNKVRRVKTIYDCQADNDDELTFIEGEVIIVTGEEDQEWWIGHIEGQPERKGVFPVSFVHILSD
UniProt P20292: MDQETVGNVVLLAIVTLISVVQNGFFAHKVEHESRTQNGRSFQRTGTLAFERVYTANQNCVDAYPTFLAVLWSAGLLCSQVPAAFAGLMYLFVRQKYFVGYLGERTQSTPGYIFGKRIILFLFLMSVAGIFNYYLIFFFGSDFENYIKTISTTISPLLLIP
UniProt Q96Q42: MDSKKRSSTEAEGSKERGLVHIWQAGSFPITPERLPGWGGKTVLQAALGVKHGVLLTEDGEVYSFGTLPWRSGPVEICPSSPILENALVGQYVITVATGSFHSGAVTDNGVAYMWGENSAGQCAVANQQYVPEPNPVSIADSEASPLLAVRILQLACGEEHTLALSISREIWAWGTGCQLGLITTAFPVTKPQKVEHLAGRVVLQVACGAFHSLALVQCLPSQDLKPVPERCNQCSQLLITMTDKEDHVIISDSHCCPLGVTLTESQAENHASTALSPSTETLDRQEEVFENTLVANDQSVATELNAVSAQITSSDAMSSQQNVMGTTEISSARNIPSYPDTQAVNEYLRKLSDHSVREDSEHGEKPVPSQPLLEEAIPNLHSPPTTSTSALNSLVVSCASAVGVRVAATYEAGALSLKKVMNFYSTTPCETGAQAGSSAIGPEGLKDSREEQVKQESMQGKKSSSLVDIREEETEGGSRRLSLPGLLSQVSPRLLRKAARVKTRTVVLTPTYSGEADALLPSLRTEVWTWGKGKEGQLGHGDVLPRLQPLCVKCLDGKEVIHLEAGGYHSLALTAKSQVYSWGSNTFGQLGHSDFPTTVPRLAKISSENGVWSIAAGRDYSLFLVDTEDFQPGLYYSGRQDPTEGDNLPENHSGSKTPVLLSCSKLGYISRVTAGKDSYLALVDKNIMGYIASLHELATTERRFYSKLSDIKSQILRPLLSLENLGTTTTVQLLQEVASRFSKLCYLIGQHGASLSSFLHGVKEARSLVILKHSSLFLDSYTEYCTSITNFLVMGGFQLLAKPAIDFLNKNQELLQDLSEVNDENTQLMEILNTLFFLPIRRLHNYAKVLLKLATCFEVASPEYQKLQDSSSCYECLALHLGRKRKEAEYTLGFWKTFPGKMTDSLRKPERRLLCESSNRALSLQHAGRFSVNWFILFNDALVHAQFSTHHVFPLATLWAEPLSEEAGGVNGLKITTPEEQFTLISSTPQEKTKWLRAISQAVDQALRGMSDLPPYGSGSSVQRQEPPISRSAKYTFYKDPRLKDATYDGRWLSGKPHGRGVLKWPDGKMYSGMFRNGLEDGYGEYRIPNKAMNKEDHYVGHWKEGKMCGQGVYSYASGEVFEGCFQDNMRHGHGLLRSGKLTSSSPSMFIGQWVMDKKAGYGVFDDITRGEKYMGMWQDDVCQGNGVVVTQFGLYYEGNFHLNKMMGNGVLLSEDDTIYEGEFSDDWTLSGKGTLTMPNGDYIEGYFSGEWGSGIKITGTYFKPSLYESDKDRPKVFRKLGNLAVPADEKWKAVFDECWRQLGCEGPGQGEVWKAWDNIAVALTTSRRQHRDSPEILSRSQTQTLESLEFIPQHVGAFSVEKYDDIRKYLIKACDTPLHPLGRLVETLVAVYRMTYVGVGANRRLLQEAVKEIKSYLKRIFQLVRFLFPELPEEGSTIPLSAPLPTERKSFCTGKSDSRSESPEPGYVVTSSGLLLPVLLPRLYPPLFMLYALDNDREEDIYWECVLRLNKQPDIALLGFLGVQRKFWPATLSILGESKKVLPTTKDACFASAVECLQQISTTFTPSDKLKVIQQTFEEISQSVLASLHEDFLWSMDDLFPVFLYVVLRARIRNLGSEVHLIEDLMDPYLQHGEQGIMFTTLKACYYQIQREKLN

The list shows a part of the results.

Compound in the test: COc1ccc(Cn2ccc3cc(C)c(C(=O)NO)cc32)cc1
As to the kind of experiment: dose-dependent thermal stabilisation call (2D-TPP, DLPTP, 10% FDR) (binary (1 = stabilised)); higher = stabilised by the compound. The conditions noted are these: system: HL-60 intact cells; concentration range 0.04-10 µM. The method, then:
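2D thermal proteome profiling in intact HL-60 cells treated with BRD-3811 (0, 0.04, 0.29, 2, 10 uM) for 90 min at 37 C, then heated 3 min at one of 12 temperatures (42-63.9 C). Soluble protein was quantified by TMT10 MS. The value is the DLPTP call of the paper: dose-dependent thermal stabilisation over all temperatures at 10% FDR (F-test of a dose-response against a flat model); one experiment, one call per tested protein.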
ANO10 (UniProt Q9NW15): the “dose-dependent thermal stabilisation call” value is inactive: 0.

Regarding ALG5 (UniProt Q9Y673), the “dose-dependent thermal stabilisation call” value is inactive: 0. For ATE1 (UniProt O95260) the value was inactive: 0; for APLP2 (UniProt Q06481), inactive: 0; for ANKLE2 (UniProt Q86XL3), inactive: 0. Turning to ARPC1B (UniProt O15143), the “dose-dependent thermal stabilisation call” value was inactive: 0. As for ASAP1 (UniProt Q9ULH1), the figure is inactive: 0. For ALOX5AP (UniProt P20292) the value was active: 1; for ALS2 (UniProt Q96Q42), inactive: 0.
